Experimental data: PubChem BioAssay AID652259 (Drosophila RNAi Screening Center, 2013)
The screen tested about 22,000 reagents; shown is a random part of those that have a named target and a result. In the full data, 233 (1.1%) are marked active. 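Light values are raw, unnormalised plate reads; the ratio scores behind the reporter calls were not deposited.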 A plus sign joins genes that one reagent is predicted to hit. The record does not give: the amount of reagent, the time to read-out, the dose of the treatment.

- Aim: 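Knock-downs that push a Wingless-driven reporter up or down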 (primary screen)
- System: Drosophila clone 8 imaginal disc epithelial cells
- Knock-down reagent: long dsRNA against Drosophila genes
- Challenge: pathway stimulated by co-transfected Wingless expression plasmid
- Read-out: 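Firefly luciferase from a tcf-site Wingless reporter, measured alongside co-transfected Renilla luciferase that tracks transfection; pathway stimulated by a Wingless plasmid; the firefly-to-Renilla ratio is not deposited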
- Direction: firefly reporter light: higher = more Wg reporter light, before normalisation; Renilla control light: higher = more transfected or surviving cells
- Call rule: 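Strong candidates differ from their plate mean by at least two out of four per-plate statistical tests; weak candidates meet just one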
- Meaning of the calls: active = candidate regulator (raises or lowers reporter); inactive = not a candidate

no.	predicted target	amplicon	reporter change call, replicate 1	firefly reporter light, replicate 1	firefly reporter light, replicate 2	Renilla control light, replicate 1	Renilla control light, replicate 2	activity call
1	kuk (kugelkern)	DRSC15730		4071	8151	1426	2358	inactive
2	CG10512	DRSC11615		14939		4615		inactive
3	Vps2 (Vacuolar protein sorting 2)	DRSC14886		5511	12583	856	2000	inactive
4	CG7523	DRSC16254		2747	6416	1042	1844	inactive
5	Axud1 (AXIN1 up-regulated 1)	DRSC00270		2155	10134	840	2998	inactive
6	CG7573	DRSC10884		7248		2796		inactive
7	Crag	DRSC18454		2019	8582	802	2075	inactive
8	CG13155	DRSC06280		6264		2531		inactive
9	tpr (tracheal-prostasin)	DRSC04468		12037		3712		inactive
10	CG32276	DRSC08027		2848		1488		inactive
11	Aef1 (Adult enhancer factor 1)	DRSC11605		7849		3704		inactive
12	Cyp317a1 (Cytochrome P450 317a1)	DRSC07366		4733		1952		inactive
13	Kr (Kruppel)	DRSC04622		1548	7264	512	3632	inactive
14	H (Hairless)	DRSC16692		16379		4074		inactive
15	hid (head involution defective)	DRSC11316		6051		2921		inactive
16	Obp50d (Odorant-binding protein 50d)	DRSC05483		17249		13984		inactive
17	l(3)05822 (lethal (3) 05822)	DRSC16202		4232	7533	1324	2505	inactive
18	Uhg3 (U snoRNA host gene 3)	DRSC22963		6.04e5	6.35e5	2.59e5	2.17e5	inactive
19	CG3687	DRSC06850		4736		2210		inactive
20	CG4945	DRSC06904		12920		3792		inactive
21	CG5188	DRSC02826		2364	6881	802	2240	inactive
22	Rnb (R and B)	DRSC16325	Wg reporter activity lowered	650	1123	768	1611	active
23	Psf1 (Partner of Sld Five 1)	DRSC08638		21117		7248		inactive
24	Pbgs (Porphobilinogen synthase)	DRSC09718		5732		2104		inactive
25	CG14696	DRSC14919		12404		3744		inactive
26	Ubx (Ultrabithorax)	DRSC16891		22137		6744		inactive
27	Mks1 (Meckel syndrome, type 1)	DRSC19697		16724		10188		inactive
28	CG34174	DRSC00101		18071		13241		inactive
29	CG34203	DRSC03855		17659		8656		inactive
30	CG6295	DRSC16012		8700		2640		inactive
31	GstO1 (Glutathione S transferase O1)	DRSC10688		1786	4389	1155	2753	inactive
32	Nak (Numb-associated kinase)	DRSC03379		5741		1920		inactive
33	CG33181	DRSC17971		12805		7673		inactive
34	CG33181	DRSC22376		7.68e5	8.98e5	3.72e5	4.15e5	inactive
35	soti (scotti)	DRSC16432		7163		2995		inactive
36	dmrt11E (doublesex-Mab related 11E)	DRSC19715		24749	7.35e5	12224	2.47e5	inactive
37	RhoU	DRSC17635		5049		2035		inactive
38	RhoU	DRSC17803		11531		6752		inactive
39	RhoU	DRSC17804		26125	7.20e5	13546	3.27e5	inactive
40	RhoU	DRSC22159		7.57e5	7.50e5	3.14e5	3.14e5	inactive
41	RhoU	DRSC22396		7.24e5	7.17e5	3.07e5	2.62e5	inactive
42	Sptr (Sepiapterin reductase)	DRSC18719		2371	5213	795	1881	inactive
43	Atpalpha (Na pump alpha subunit)	DRSC14119		3740	5843	1497	1693	inactive
44	TwdlB (TweedleB)	DRSC16050		8675		3320		inactive
45	CG14764	DRSC05072		17083		8070		inactive
46	CG14764	DRSC06498		9485		3089		inactive
47	CG14764	DRSC06844		2802	7344	760	2569	inactive
48	Arp6 (Actin-related protein 6)	DRSC19326		2630	8185	1098	2162	inactive
49	CG9346	DRSC04542		15009		2616		inactive
50	Bre1	DRSC09742		14369		2610		inactive
51	tank	DRSC00461		3201	5944	957	2326	inactive
52	Ir7c (Ionotropic receptor 7c)	DRSC18007		18037		9180		inactive
53	NO66 (Nucleolar protein 66)	DRSC18252		2796	8800	1217	2605	inactive
54	BoYb	DRSC11637		8084		3354		inactive
55	CNMa (CNMamide)	DRSC08405		11170		3139		inactive
56	CG17707	DRSC20650		12888		7815		inactive
57	CG33127	DRSC00011		20981		12085		inactive
58	Sgp (Sgroppino)	DRSC02195		8045		2033		inactive
59	lncRNA:CR43485 (long non-coding RNA:CR43485)	DRSC08059		2875		1142		inactive
60	CG1387	DRSC17904		2716	9447	873	2011	inactive
61	Ran	DRSC20364		24247		5760		inactive
62	aurA (aurora A)	DRSC16905		12912		4403		inactive
63	CG31288	DRSC14667		19844		15875		inactive
64	Prosalpha1R + Prosalpha1	DRSC07515		7273		2451		inactive
65	Lmx1a (LIM homeobox transcription factor 1 alpha)	DRSC09726		4852		1824		inactive
66	Lmx1a (LIM homeobox transcription factor 1 alpha)	DRSC10275	Wg reporter activity raised	5906		457		active
67	CG31683 + CG18858	DRSC02703		3296	8948	890	3372	inactive
68	wcd (wicked)	DRSC07051		14039		5922		inactive
69	CG9986	DRSC16586		3244	5433	1188	2592	inactive
70	CG3746	DRSC04412		2956	10486	746	3873	inactive
71	ple (pale)	DRSC11383		2019	6908	1026	2386	inactive
72	lncRNA:Hsromega (Heat shock RNA omega)	DRSC22875		5.18e5	5.73e5	2.39e5	68896	inactive
73	CG7330	DRSC10813		8797		3576		inactive
74	CG7330	DRSC10814		6987		3265		inactive

Targets above whose target name begins with N or n:
predicted target	amplicon	reporter change call, replicate 1	firefly reporter light, replicate 1	firefly reporter light, replicate 2	Renilla control light, replicate 1	Renilla control light, replicate 2	activity call
Nak (Numb-associated kinase)	DRSC03379		5741		1920		inactive
NO66 (Nucleolar protein 66)	DRSC18252		2796	8800	1217	2605	inactive
